# Where “and” joins values, the source holds several entries; their conditions need not be identical. Equal values may be shown once. For part of these data: At least one read-out could not be matched to a standard name with certainty. Some entries share one result that the patent states for a list of compounds. For part of these data: For at least one compound, name, drawing or mass did not settle the structure.
# What was measured:
# HEK 293 cells = assay: OCR measurements in 293 cells; type: cell-based, human; conditions: dosages ranging between 25-50 μM
# MCH58 fibroblasts = assay: Glucose versus galactose cell growth screen (metabolic state-dependent lethality); conditions: approximately 10 μM compound, 72 hours, log10 fold change of normalized cell number in glucose versus galactose
SMILES,inhibition of cellular oxygen consumption rate (OCR) (HEK 293 cells),Sglu/gal (log10 fold change) Score (MCH58 fibroblasts),Sglu/gal (log10 fold change) Score (MCH58 fibroblasts; listed as Amethopterin),Sglu/gal (log10 fold change) Score (MCH58 fibroblasts; methotrexate)
"Cc1cccc(CN2CCN([C@@H](c3ccccc3)c3ccc(Cl)cc3)CC2)c1 [S-meclizine, S-Meclizine]",60-80%,–,–,–
CN(Cc1cnc2nc(N)nc(N)c2n1)c1ccc(C(=O)N[C@@H](CCC(=O)O)C(=O)O)cc1 [methotrexate],–,−0.27,−0.26,−0.39
Cc1cccc(CN2CCN([C@H](c3ccccc3)c3ccc(Cl)cc3)CC2)c1 [R-meclizine],60-80%,–,–,–
COc1ccc2cc3[n+](cc2c1OC)CCc1cc2c(cc1-3)OCO2 [Berberine chloride],–,0.53 and 0.41,–,–
